Assay [1] deals with FLAG-tagged wild-type ZCCHC10 (human) (UniProt Q8TBK6). As to the kind of experiment: co-IP; A2058 cells transiently co-transfected with one FLAG-tagged and one non-tagged expression vector, harvested after 24 h; lysis buffer 100 mM Tris HCl pH 7.5, 300 mM NaCl, 2 mM EDTA, 2% Triton X-100; anti-FLAG M2 affinity gel (FLAG Immunoprecipitation Kit); western blotting with anti-PITX1 and anti-ZCCHC10 antibodies; control: empty FLAG vector. Background: Immunoblotting shows a protein as a band on a membrane.

Amino acid sequences for entries named in this document (tags omitted). A change or cut given only in a name is not applied to a line headed by its entry.
UniProt Q8TBK6: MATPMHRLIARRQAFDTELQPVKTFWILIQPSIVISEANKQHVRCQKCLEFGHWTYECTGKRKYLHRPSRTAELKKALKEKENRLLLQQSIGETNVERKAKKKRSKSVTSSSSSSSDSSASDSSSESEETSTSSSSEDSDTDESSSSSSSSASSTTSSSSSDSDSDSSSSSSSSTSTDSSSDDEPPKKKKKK
UniProt P78337: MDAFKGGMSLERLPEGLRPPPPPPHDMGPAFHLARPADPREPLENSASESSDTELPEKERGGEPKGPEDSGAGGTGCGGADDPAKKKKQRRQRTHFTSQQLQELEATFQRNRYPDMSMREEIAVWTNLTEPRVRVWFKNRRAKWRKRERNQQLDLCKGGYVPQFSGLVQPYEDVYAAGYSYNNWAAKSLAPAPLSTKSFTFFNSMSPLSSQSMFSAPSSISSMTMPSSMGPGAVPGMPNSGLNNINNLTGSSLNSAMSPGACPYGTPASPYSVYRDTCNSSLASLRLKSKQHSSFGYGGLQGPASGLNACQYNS

For assay [2], the target named is FLAG-tagged wild-type PITX1 (paired-like homeodomain 1) (human) (UniProt P78337). Described as above.
The target is the same in assay [3]. As to the kind of experiment: co-IP; U2OS cells expressing FLAG-PITX1; immunoprecipitated with anti-FLAG antibody, immunoblotted with anti-FLAG and anti-ZCCHC10 antibody (endogenous ZCCHC10); control: empty vector cells.

No constants are given. Whether binding was seen depends on the method and setting. In cells and extracts the contact can be indirect. Some entries that bind do so weakly or less than the wild type.

For the substance “PITX1, wild type, non-tagged expression vector (from UniProt P78337 1-314)”, the binding entry in assay [1] was “binds”.
For “ZCCHC10, wild type, non-tagged expression vector (from UniProt Q8TBK6 1-192)”, the binding result in assay [2] is given as “binds”.
For the substance “Zinc finger CCHC domain-containing protein 10 (ZCCHC10), endogenous (from UniProt Q8TBK6-1 1-192)”, in assay [3], the binding entry is on record as “binds”.

The record behind these values is paper PMC6690549.
